Over roughly 33,000 sequences, “E-score (-0.5 to 0.5)” has its median near -0.0014; the highest 2% begin near 0.25. The list shows a part of the results.

The assay concerns the target T1, Cad1 (UniProt P24813).
T1 sequence: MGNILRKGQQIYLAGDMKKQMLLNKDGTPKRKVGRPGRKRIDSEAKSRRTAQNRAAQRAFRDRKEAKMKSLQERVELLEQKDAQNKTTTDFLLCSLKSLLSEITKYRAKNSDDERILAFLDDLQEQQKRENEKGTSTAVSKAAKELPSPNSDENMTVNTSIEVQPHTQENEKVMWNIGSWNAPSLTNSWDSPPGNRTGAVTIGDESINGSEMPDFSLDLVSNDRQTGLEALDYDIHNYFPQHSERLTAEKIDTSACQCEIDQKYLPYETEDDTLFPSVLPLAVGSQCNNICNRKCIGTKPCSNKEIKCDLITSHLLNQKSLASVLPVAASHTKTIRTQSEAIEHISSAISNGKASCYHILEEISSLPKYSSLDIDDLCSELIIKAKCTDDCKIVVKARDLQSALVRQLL
Description: PBM E-score (8-mer binding enrichment) (E-score (-0.5 to 0.5)); higher = stronger / more preferred TF binding. The following applies: protein concentration: 100 nM; construct: GST-full length. The method in brief: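 Detection of bound protein used fluorescent anti-GST, with scans normalised by masliner. The proteins were GST-tagged yeast transcription factors applied at about 100-200 nM to universal all-10-mer Agilent arrays made double-stranded by primer extension. Each ungapped eight-base word, pooled with its reverse complement, was scored with an E-score from the Universal PBM Analysis Suite.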
On to ACCGCCTC, for which the “PBM E-score” value is -0.304.

ATATATCA: the “PBM E-score” value was found to be 0.134. With AATTGAGG, the “PBM E-score” value stood at 0.146. Regarding AAGATCCT, the “PBM E-score” value was 0.144. Then GCCCAAGA, with -0.0848; and AGTTGGCC, with -0.13; and GCTTCCAC, with -0.0882. Regarding CGGGCGCC, the “PBM E-score” value is 0.045.

Regarding ATGCCAGA, the “PBM E-score” value came out at 0.102. Then GTGCATAA, with 0.0837. On to GTGGTCCA, for which the “PBM E-score” value came out at 0.139. Then ACCAAACT, with -0.0663; and ACCATGAA, with 0.164.

For the sequence GCTACAAA, the “PBM E-score” value amounted to 0.0933. Regarding ACGTTGAA, the “PBM E-score” value was determined as 0.0248. For the sequence ATGCAACC, the “PBM E-score” value came out at 0.0532. As for TGTCAGAA, the “PBM E-score” value is -0.00196.

Turning to AAGTTCGG, the “PBM E-score” value was 0.0372.

Turning to AAGAGATG, the “PBM E-score” value was -0.0245.

With CTGGACCA, the “PBM E-score” value is -0.0298. The result for CACTATTC reads 0.184; that for AAGGATGA, 0.00249.

Take CATGCACG: the “PBM E-score” value was -0.086. With ATCGGCTC, the “PBM E-score” value turned out to be 0.0614. As to ACTTCGAG, the “PBM E-score” value worked out at 0.0357. For the sequence GGTGCCAA, the “PBM E-score” value is -0.0965. As for ACACTTGG, the “PBM E-score” value was -0.082. On to GACCTTGA, for which the “PBM E-score” value is -0.0607. The result for AGACGTTA reads -0.047; that for AGGTAGGG, -0.0292. For the sequence AAACATCA, the “PBM E-score” value was 0.125. The result for AGAATTCC reads -0.0367.

Consider CAGACGGG, for which the “PBM E-score” value is -0.0911.

Turning to AGGATTGC, the “PBM E-score” value was -0.0745.

On to AAATCCCG, for which the “PBM E-score” value is -0.00231. The result for CAGGGATC reads -0.238. The result for GACAAATA reads 0.293. In the case of AGGACTCG, the “PBM E-score” value is -0.135. Take TGATTGCA: the “PBM E-score” value amounted to 0.0673. The result for ACCCGCAC reads 0.0284; that for ATGAGCCA, 0.107. Consider CCCCACGC, for which the “PBM E-score” value is -0.275. Then CGCCGCTC, with -0.117; and ATGATATC, with 0.0971.

As for AAGCCCGA, the “PBM E-score” value is -0.171.

In the case of CGTCTAGC, the “PBM E-score” value was 0.0518. Then AATAAGAC, with -0.015. With CCCGCCTA, the “PBM E-score” value came to 0.0947. Then GGATTAAC, with 0.0685. Take ACACAATC: the “PBM E-score” value turned out to be 0.0563. The result for CGAGAATC reads 0.141. The result for ATCGACCA reads -0.0938; that for AATCCAGG, -0.0298. Then AATGCGAT, with 0.0759; and ACAGACGA, with 0.0138. With CGTAGTAA, the “PBM E-score” value came to 0.0258. The result for CCAAAGGC reads -0.0958. Then ACCTAGCA, with -0.0189; and AAGATATG, with 0.184. For GAAGGCAA, the “PBM E-score” value was -0.0624.

For the sequence TCCGAGCA, the “PBM E-score” value was -0.0285. The result for CCGTCACG reads -0.0805; that for ACGTCAGC, 0.147; that for AGCCAATC, -0.126. The result for GCTATGAC reads 0.0852. Then AGGGCCAA, with -0.278; and GAGTGGAA, with -0.152; and AGGAGCAA, with -0.143.

On to CTAGCTCA, for which the “PBM E-score” value was -0.0382. The result for AGTATGCC reads 0.0361; that for CATGGATC, -0.0634; that for GATAGTTA, 0.0757. As to AATTCGAA, the “PBM E-score” value was determined as 0.0472. Consider CTGGTCGA, for which the “PBM E-score” value was -0.12. In the case of GCACATAC, the “PBM E-score” value is -0.0456. With ACGTCTCA, the “PBM E-score” value worked out at 0.105.

Regarding ACGGTTTC, the “PBM E-score” value was 0.074. Then GCCCGATA, with 0.0695. Then CCGCAAAG, with 0.129; and CACGTGAG, with 0.0771; and CGATCATA, with -0.00701. Then GAGGAAAA, with 0.082; and AAACACTG, with 0.0814. Consider AACGGTCT, for which the “PBM E-score” value is -0.0284. On to GGACGCCC, for which the “PBM E-score” value is -0.167. In the case of CAGGTCAA, the “PBM E-score” value is -0.264. Then TGGTGAAA, with -0.0297. Then AAGGTAGG, with 0.0706. The result for CCAGGTCG reads -0.193; that for ACGCGCTA, 0.109; that for ATCTGCGC, -0.0666. Regarding GCATGCAA, the “PBM E-score” value came out at 0.144.

With TAAAACCA, the “PBM E-score” value was 0.0127. Then CTGCAGCA, with 0.0924.
